Article PMC5855093
Results are given in words; binding and its absence hold for the method and conditions named. In cells and extracts the contact can be indirect. Some binding calls cover weakened binding; strength is not graded here.

Amino acid sequences for entries named in this document (tags omitted).
UniProt Q6GQD1: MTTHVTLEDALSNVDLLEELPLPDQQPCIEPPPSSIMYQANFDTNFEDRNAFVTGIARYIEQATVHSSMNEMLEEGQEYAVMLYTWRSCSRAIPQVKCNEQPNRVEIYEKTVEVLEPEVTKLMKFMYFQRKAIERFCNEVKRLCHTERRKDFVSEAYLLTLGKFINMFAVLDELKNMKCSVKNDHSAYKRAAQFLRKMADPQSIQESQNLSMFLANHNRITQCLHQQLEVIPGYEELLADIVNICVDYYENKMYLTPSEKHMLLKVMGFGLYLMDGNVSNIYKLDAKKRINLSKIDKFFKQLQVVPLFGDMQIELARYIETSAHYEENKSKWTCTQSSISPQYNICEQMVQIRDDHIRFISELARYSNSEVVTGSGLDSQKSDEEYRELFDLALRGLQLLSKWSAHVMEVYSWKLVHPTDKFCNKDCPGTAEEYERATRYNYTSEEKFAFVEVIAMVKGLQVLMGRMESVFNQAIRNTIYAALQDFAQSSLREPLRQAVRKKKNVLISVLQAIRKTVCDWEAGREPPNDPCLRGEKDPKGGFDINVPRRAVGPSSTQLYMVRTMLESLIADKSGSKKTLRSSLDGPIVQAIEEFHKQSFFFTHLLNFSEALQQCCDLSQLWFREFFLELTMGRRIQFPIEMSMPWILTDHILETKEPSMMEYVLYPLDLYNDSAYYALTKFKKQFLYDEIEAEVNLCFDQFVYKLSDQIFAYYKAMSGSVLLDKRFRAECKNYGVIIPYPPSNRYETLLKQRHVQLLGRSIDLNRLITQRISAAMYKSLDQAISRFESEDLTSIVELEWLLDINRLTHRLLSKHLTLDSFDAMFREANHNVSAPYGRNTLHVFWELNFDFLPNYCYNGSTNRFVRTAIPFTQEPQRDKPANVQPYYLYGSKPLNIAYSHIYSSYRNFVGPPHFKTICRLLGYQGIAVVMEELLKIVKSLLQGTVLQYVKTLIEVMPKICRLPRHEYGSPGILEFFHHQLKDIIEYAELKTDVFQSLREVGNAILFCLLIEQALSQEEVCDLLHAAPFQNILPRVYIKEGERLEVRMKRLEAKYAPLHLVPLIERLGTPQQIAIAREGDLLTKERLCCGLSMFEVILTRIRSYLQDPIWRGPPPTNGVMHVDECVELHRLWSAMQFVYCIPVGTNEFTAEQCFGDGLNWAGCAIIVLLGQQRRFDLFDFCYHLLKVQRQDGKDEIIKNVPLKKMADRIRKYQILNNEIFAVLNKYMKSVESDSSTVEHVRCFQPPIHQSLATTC

Assays:
[1] = target: CYFIP2 (endogenous, Xenopus retinal ganglion cell axons) (Xenopus laevis (endogenous in Xenopus retinal cultures)) (UniProt Q6GQD1); experiment: proximity ligation; Duolink in situ PLA on fixed Xenopus retinal explant cultures, endogenous proteins; signal counted in the RGC growth cone (central and peripheral domains)
[2] = target: CYFIP2 (endogenous, Xenopus retinal ganglion cell axons) (Xenopus laevis (endogenous in Xenopus retinal cultures)) (UniProt Q6GQD1); experiment: proximity ligation; Duolink in situ PLA on fixed Xenopus retinal explant cultures, endogenous proteins; signal counted in the RGC axon shaft

B1: NCKAP1 (protein, UniProt Q640K3 1-1128)
chain: MSRSVLQPSQQKLAEKLTILNDRGVGMLTRLYNIKKACGDPKAKPSYLIDKNLESAVKFIVRKFPAVETRNNNQQLAQLQKEKSEILKNLALYYFTFVDVMEFKDHVCELLNTIDVCQVFLDITVNFDLTKNYLDLIVTYTTLMIMLSRIEERKAIIGLYNYSHEMTHGASDREYPRLGQMIVDYENPLKKMMEEFVPHSKSLSDALISLQMVYPRRNLSAEQWRNAQLLSLISAPSTMLNPAQSDTMPCEYLSLDTMEKWIILGFILCHGILNTDATSLNLWKLALQSSSCICLYRDEVLHFHKAAEDLFVNIRGYNKRINDIRECKENAVSHAGATHRERRKFLRSALKELATVLSDQPGLLGPKALFVFMALSFARDEIIWLLRHADNIPKKIADDFMDKHIAELIFYMEELRAHVRKYGPVMQRYYVQYLSGFDAVVLNELVQNLSVCPEDESIIMSSFVNTMTSLSVKQVEDGEVFDFRGMRLDWFRLQAYTSVSKASLSLTDHRELGKMMNTIIFHTKMVDSLVEMLVETSDLSIFCFYSRAFEKMFQQCLELPSQSRYSISFPLLCTHFMSCTHELCPEERHHIGDRSLSLCNMFLDEMAKQARNLITDICTEQCTLSDQLLPKHCAKTISQAVNKKSKKQTGKKGEPEREKPGVESMRKNRLVVTNLDKLHTALSELCFSINYAPNMVVWEHTFTPREYLTSHLEIRFTKSIVGMTMYNQVTQEIAKPSELLTSVRAYMTVLQSIENYVQIDITRVFNNVLLQQTQHLDSHGEPTITSLYTNWYLETLLRQVSNGHIAYFPAMKAFVNLPTENELTFNAEEYSDISEMRALSELLGPYGMKFLSESLMWHISSQVAELKKLVVENVEVLTQMRTSFDKPEQMAAFFKRLTSVDSVLKRMTIIGVILSFRSLAQEALKDVLSYHIPFLVSSVEDFKDHIPRETDMKVAMNVYELSSAAGLPCEIDPALVVALSSQKSETISPEEEYKIACLLMVFVAVSLPTLASNVMSQYSPAIEGHCNNIHCLAKAINQIAAALFTIHKGSIEDRLKEFLALASSSLLKIGQETDKTTTRNRESVYLLLDMIVQESPFLTMDLLESCFPYVLLRNAYHAVYKQSVTSSS
- binding [1]: binds
- binding [2]: binds weakly
